From PMC6294630 come the findings set out here.

The assay addresses Gal-13 variant C136SC138S (human) (UniProt Q9UHV8). Description: SEC; gel filtration; conditions not given; both purified.

These are yes or no findings as the source states them, for the method shown.

B1: Gal-13 variant C136SC138S (protein, UniProt Q9UHV8 1-139)
chain: MSSLPVPYKLPVSLSVGSCVIIKGTPIHSFINDPQLQVDFYTDMDEDSDIAFRFRVHFGNHVVMNRREFGIWMLEETTDYVPFEDGKQFELCIYVHYNEYEIKVNGIRIYGFVHRIPPSFVKMVQVSRDISLTSVSVSN
Turning to B1, the binding result is listed as “no binding”.
